# Assay results from the supplement of paper PMC12067093, “Discovery and optimisation of a covalent ligand for TRIM25 and its application to targeted protein ubiquitination” (Chemical Science, 2025).
# Protein sequences, listed by entry. Tags and fused reporters are not part of them. Lines headed by an entry give the natural chain unless they say otherwise; changes in a name come on top.
# UniProt Q9BV86: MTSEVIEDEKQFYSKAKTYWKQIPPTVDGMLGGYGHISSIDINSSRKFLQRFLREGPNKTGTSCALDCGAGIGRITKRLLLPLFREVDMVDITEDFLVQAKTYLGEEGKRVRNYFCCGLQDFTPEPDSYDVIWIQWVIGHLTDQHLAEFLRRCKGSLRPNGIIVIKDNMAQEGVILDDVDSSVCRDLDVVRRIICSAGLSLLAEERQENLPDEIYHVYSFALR
# UniProt Q9UMY1: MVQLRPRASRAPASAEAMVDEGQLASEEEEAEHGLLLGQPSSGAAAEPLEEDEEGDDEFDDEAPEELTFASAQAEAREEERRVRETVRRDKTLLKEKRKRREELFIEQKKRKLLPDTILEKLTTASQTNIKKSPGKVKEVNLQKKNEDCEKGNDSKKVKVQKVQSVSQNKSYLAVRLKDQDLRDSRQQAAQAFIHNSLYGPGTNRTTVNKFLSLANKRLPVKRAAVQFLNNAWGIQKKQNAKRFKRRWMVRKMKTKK
# UniProt O43847: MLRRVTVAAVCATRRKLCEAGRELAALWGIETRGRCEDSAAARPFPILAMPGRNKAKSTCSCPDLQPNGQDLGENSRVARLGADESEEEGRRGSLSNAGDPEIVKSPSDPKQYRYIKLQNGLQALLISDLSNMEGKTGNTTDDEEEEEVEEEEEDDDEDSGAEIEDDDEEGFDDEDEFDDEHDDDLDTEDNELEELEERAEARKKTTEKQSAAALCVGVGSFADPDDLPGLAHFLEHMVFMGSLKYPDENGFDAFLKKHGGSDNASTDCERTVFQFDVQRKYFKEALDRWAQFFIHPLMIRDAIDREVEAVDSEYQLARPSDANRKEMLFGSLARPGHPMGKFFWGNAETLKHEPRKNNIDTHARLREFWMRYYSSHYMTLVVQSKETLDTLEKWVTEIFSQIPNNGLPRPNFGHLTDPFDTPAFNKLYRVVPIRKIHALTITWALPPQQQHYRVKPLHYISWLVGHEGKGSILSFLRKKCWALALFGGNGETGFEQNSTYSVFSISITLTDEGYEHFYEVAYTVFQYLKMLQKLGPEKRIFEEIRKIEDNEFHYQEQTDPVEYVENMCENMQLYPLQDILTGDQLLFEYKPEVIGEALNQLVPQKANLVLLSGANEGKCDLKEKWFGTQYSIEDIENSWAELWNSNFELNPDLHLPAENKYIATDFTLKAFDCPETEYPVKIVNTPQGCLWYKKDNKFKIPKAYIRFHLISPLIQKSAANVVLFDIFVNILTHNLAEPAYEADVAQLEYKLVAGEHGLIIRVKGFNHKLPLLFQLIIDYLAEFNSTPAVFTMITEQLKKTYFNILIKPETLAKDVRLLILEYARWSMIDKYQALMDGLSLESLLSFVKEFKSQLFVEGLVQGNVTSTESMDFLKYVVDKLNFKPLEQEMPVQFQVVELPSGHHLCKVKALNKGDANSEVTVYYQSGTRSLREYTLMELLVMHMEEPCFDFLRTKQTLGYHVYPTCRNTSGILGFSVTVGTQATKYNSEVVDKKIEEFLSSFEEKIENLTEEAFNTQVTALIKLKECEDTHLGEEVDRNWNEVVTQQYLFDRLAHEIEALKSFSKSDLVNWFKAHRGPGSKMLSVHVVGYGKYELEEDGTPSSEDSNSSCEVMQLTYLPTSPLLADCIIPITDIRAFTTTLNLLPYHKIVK
# UniProt Q8TAT6: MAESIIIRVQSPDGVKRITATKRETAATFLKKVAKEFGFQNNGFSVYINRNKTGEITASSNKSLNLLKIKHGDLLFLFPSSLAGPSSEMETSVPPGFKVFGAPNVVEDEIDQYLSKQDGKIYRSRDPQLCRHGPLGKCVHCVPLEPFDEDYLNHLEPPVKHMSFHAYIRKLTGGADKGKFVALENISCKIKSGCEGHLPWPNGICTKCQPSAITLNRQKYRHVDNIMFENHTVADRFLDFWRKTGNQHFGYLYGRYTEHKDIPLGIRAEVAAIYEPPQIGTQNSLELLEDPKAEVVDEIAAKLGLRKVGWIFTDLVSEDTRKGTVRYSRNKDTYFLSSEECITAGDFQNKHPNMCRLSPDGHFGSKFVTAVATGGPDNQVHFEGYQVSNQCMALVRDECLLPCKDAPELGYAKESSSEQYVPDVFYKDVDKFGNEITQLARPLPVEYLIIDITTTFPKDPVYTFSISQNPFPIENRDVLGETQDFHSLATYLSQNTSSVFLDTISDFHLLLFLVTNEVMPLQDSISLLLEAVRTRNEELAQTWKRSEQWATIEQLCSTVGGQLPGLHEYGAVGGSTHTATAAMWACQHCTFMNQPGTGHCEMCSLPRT
# UniProt P49902: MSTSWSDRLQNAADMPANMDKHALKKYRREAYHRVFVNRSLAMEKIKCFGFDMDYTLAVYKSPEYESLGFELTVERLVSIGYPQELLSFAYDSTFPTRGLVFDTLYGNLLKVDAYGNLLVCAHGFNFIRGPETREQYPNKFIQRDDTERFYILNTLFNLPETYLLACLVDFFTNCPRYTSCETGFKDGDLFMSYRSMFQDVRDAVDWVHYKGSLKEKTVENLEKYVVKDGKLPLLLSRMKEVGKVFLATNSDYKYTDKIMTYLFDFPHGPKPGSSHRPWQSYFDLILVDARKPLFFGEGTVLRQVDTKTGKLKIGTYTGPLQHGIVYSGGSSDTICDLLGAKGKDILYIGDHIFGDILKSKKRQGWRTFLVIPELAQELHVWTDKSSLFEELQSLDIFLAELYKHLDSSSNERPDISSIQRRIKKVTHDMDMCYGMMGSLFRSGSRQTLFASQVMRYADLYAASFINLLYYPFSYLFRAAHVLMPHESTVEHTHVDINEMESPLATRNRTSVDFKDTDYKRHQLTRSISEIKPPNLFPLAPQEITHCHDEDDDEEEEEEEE
# UniProt Q15738: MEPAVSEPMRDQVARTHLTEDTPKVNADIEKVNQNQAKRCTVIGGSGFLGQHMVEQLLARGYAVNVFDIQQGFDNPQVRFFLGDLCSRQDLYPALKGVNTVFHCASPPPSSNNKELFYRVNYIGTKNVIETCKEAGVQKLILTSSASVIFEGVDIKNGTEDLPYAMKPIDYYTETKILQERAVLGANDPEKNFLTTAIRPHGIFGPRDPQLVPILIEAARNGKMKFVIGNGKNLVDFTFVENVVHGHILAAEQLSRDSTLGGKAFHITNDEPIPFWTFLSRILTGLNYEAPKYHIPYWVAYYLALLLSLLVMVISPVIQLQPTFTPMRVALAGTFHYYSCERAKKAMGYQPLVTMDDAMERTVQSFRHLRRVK
# UniProt P46459: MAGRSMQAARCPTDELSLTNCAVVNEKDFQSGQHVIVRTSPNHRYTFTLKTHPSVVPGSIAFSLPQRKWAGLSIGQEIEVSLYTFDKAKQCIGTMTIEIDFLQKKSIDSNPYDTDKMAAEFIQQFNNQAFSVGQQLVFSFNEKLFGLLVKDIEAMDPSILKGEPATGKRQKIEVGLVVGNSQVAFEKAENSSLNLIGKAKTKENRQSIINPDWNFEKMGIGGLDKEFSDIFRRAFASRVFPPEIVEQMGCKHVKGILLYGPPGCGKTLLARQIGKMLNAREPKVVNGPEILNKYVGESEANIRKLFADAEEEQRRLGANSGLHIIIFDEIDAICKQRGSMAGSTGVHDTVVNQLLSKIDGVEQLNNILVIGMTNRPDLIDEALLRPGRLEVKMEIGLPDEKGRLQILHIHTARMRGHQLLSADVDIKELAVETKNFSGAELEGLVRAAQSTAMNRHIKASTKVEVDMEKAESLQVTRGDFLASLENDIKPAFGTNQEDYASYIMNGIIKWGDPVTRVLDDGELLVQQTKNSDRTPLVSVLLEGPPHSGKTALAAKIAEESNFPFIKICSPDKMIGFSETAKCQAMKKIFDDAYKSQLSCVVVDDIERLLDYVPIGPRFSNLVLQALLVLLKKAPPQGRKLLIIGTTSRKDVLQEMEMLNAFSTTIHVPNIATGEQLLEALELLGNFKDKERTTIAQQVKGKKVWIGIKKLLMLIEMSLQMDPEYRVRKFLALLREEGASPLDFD
# UniProt Q04721: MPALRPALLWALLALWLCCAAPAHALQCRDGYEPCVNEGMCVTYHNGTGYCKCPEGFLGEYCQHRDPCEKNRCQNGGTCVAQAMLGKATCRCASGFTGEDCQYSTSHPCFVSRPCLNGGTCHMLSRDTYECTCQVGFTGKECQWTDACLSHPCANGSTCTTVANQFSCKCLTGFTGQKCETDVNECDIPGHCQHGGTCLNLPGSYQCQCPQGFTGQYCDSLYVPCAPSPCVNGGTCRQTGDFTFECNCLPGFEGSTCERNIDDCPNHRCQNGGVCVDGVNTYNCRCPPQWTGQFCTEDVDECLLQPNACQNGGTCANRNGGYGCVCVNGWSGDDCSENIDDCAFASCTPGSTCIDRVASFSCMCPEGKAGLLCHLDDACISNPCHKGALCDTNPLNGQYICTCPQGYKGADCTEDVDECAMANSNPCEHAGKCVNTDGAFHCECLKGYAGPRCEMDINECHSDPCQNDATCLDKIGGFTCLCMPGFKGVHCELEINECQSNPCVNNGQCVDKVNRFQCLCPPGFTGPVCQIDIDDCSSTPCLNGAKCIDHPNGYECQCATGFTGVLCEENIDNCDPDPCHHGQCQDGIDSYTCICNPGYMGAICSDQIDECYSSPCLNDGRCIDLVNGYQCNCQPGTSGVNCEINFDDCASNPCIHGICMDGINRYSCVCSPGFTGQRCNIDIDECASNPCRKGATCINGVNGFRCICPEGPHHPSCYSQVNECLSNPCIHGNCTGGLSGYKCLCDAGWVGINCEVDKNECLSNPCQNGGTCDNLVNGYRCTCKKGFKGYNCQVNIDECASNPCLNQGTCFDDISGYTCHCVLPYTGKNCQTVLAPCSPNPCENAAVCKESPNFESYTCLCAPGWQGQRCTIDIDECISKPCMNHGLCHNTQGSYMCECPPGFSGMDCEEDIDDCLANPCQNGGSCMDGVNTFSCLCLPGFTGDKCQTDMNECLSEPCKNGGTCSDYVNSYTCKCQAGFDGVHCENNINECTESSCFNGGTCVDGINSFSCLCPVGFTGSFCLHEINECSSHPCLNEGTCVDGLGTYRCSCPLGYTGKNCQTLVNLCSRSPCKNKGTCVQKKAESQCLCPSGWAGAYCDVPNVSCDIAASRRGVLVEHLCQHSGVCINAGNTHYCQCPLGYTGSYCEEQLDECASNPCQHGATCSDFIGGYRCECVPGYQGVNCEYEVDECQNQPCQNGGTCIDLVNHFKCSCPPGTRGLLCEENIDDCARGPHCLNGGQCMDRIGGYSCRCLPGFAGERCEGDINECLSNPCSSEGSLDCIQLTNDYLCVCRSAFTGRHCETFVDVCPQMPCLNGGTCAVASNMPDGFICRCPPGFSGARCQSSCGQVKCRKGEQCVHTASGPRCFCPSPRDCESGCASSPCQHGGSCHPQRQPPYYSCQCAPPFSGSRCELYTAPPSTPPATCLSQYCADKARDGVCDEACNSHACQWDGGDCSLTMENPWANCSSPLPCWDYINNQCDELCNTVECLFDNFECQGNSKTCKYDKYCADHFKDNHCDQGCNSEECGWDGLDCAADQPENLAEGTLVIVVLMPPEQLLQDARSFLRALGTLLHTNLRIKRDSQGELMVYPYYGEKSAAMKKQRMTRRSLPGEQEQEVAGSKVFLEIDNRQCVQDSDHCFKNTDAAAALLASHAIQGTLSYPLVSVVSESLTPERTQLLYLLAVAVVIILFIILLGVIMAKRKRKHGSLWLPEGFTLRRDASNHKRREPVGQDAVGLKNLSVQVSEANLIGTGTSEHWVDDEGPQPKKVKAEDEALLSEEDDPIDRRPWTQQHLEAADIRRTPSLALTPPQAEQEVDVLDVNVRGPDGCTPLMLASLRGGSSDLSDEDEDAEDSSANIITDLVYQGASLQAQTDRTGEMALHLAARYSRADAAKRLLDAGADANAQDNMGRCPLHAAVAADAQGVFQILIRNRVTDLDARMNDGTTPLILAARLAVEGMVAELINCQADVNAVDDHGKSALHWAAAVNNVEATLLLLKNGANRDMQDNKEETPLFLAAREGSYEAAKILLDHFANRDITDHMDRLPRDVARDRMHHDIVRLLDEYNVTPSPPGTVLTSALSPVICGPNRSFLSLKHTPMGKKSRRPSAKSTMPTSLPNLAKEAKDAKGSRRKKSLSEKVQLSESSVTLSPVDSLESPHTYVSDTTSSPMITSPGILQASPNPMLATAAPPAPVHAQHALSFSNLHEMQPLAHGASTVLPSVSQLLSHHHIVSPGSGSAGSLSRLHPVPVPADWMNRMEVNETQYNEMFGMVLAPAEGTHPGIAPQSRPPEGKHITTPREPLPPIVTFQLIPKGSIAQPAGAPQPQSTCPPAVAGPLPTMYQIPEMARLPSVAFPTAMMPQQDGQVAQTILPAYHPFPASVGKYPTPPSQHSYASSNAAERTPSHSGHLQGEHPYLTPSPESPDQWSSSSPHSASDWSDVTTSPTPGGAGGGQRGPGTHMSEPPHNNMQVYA
# UniProt Q86WQ0: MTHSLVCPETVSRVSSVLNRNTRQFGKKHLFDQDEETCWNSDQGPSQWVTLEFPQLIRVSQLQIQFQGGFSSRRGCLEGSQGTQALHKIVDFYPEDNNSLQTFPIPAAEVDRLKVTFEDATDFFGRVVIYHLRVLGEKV
# The list shows a part of the results.
# Compound: Cc1cc(ccc1-c1ccccc1)C(=O)N1CCCN(CC1)C(=O)CCl [compound 10]
# Experiment: probe-labelled cysteine peptide fold change vs DMSO (competition) (log2 fold change); higher = less target engagement (more negative = stronger competition)
# Details: 10 µM; THP-1; incubation time: 4 h
# 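Further: competitive profiling in live THP-1 cells: cysteine peptides tagged with an iodoacetamide desthiobiotin (IA-DTB) probe, intensity after compound treatment relative to DMSO-treated cells.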
row,Target,probe-labelled cysteine peptide fold change
1,NLRX1_Q86UT6_644_AVLAQLGCPIK (UniProt Q86UT6),-0.0725
2,NTMT1_Q9BV86_68_TGTSCALDCGAGIGR (UniProt Q9BV86),0.17
3,NOL7_Q9UMY1_149_KNEDCEK (UniProt Q9UMY1),0.0489
4,NMNAT3_Q96T66_134_LLCGADVLK (UniProt Q96T66),0.0387
5,NRDC_O43847_1027_LKECEDTHLGEEVDRNWNEVVTQQYLFDR (UniProt O43847),-0.22
6,NPLOC4_Q8TAT6_188_FVALENISCK (UniProt Q8TAT6),-0.0636
7,NT5C2_P49902_433_VTHDMDMCYGMMGSLFR (UniProt P49902),0.071
8,NSDHL_Q15738_86_FFLGDLCSR (UniProt Q15738),-0.104
9,NOL8_Q76FK4_556_QCIRPAEIVASLLEGEENTCGK (UniProt Q76FK4),-0.0448
10,NT5C_Q8TCD5_166_GQEETPSWEHILFTCCHNR (UniProt Q8TCD5),-0.137
11,NRDC_O43847_690_IVNTPQGCLWYKK (UniProt O43847),-0.0865
12,NSF_P46459_91_QCIGTMTIEIDFLQK (UniProt P46459),0.0665
13,NOTCH2_Q04721_364_VASFSCMCPEGK (UniProt Q04721),-0.00588
14,NR2C2AP_Q86WQ0_7_THSLVCPETVSR (UniProt Q86WQ0),-0.0852
15,NOP9_Q86U38_141_CGVHVLQSALLQLPR (UniProt Q86U38),0.271
16,NSDHL_Q15738_40_CTVIGGSGFLGQHMVEQLLAR (UniProt Q15738),-0.0629
17,NSUN2_Q08J23_502_KDGVCGPPPSKK (UniProt Q08J23),-0.297
18,NPLOC4_Q8TAT6_130_SRDPQLCR (UniProt Q8TAT6),0.114
19,NOL6_Q9H6R4_633_LIPHQVVTHLLALHADIPETCVHYVGGPLDALIQGLK (UniProt Q9H6R4),0.227
20,NOP56_O00567_211_IINDNATYCR (UniProt O00567),0.127
21,NPC2_P61916_27_DCGSVDGVIK (UniProt P61916),-0.259
22,NLRC5_Q86WI3_1671_RLEELMLGCNALGDPTALGLAQELPQHLR (UniProt Q86WI3),-0.0917

# A different layout for some results above.
row	Target	probe-labelled cysteine peptide fold change
13	NOTCH2_Q04721_364_VASFSCMCPEGK (UniProt Q04721)	-0.00588
14	NR2C2AP_Q86WQ0_7_THSLVCPETVSR (UniProt Q86WQ0)	-0.0852
